Where a name gives a salt, the structure may show the parent alone. Some of the results follow. Hit calls seldom repeat between salt and free forms of one compound.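 Kinases were expressed as nanoluciferase fusions in K562 cells and luminescence was read every 4 h between 2 and 18 h as percent of control, DMSO set to 100% and a positive control to 0%. A time point counts as decreased when the signal drops significantly (2 sigma). The hit call is the authors' own, does not follow from the count of time points alone, and its rule is not shown.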
Target: CDK3 (UniProt Q00526)
Assay: number of time points (of 5) at which kinase-Nluc abundance scored as decreased, DMSO-normalised (count); higher = more persistent destabilization
Details: K562; 2-18 h

By UniProt entry, the sequences of proteins in these tests, tags left out. Where a name states a change or a piece, a line headed by the entry shows the natural chain unless it says otherwise.
UniProt Q00526: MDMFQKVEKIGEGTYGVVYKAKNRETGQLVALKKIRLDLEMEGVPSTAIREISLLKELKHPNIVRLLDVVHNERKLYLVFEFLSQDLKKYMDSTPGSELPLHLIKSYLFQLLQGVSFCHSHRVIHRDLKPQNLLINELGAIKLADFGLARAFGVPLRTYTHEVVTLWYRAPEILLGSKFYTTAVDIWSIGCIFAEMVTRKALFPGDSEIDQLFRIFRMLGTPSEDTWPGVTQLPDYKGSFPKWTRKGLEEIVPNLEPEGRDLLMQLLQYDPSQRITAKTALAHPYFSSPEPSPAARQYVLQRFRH

Structure (SMILES)	number of time points
N#Cc1ccc2[nH]c(O)c(-c3ccc(CN4CCOCC4)cn3)c2c1 (10 µM)	0
CCN(CC)CCCCNc1ncc2cc(-c3cc(OC)cc(OC)c3)c(NC(=O)NC(C)(C)C)nc2n1 (10 µM)	0
Oc1ccc(-c2nc(-c3ccc(F)cc3)c(-c3ccncc3)[nH]2)cc1 (2.5 µM)	0
O=C1NCCc2[nH]c(-c3ccnc(-c4cnc5ccccc5c4)c3)cc21 (10 µM)	0
Cc1cc(N2CCOCC2)cc2[nH]c(-c3c(NC[C@@H](O)c4cccc(Cl)c4)cc[nH]c3=O)nc12 (10 µM)	0
COc1cc(OC)cc(-c2cc3cnc(N)nc3nc2NC(=O)NC(C)(C)C)c1 (10 µM)	0
Cc1ccc(NC(=O)Nc2nnc(Sc3ncnc4cc(OCCCN5CCOCC5)ccc34)s2)cc1 (10 µM)	0
N#C/C(=C\c1ccc(O)c(O)c1)C(=O)NCCCc1ccccc1 (10 µM)	0
Cc1cccc([C@@H](CO)NC(=O)[C@@H](C)N2Cc3ccc(-c4nc(NC5CCOCC5)ncc4Cl)cc3C2=O)c1 [ERK1/2 inhibitor 1] (10 µM)	0
CCOc1ccn(-c2ccc(F)cc2)c(=O)c1C(=O)Nc1ccc(Oc2ccnc(N)c2Cl)c(F)c1 (10 µM)	0
O=c1cc(N2CCOCC2)oc2c(-c3ccccc3)cccc12 (10 µM)	0
O=c1oc2c(O)c(O)cc3c(=O)oc4c(O)c(O)cc1c4c23 [Ellagic acid] (10 µM)	0
C=CC(=O)Nc1ccc2ncnc(Nc3cccc(Br)c3)c2c1 (10 µM)	0
Cc1c(Cn2c(C)nc3c(C(=O)O)cc(N4CCOCC4)cc32)cccc1C(F)(F)F (10 µM)	0
Cc1c[nH]c2nccc(Oc3c(F)cc(Nc4cc(Cl)nc(N)n4)cc3F)c12 (10 µM)	0
CC(C)CC(=O)Nc1n[nH]c2c1CN(C(=O)C1CCN(C)CC1)C2(C)C (2.5 µM)	0
CCN(CCO)CCCOc1ccc2c(Nc3cc(CC(=O)Nc4cccc(F)c4)[nH]n3)ncnc2c1 [Barasertib-HQPA] (10 µM)	0
N#C/C(=C\c1ccc(O)c(O)c1)C(=O)NCc1ccccc1 (10 µM)	0
COc1nccc(-c2c(-c3ccc(F)cc3)ncn2C2CCC(O)CC2)n1 (centres undefined) (10 µM)	0
O=c1c(-c2ccc(O)cc2)coc2cc(O)cc(O)c12 [Genistein] (10 µM)	0

2 neighbouring records out of the list so far, for reference:
Structure (SMILES)	number of time points
COc1cc(OC)cc(-c2cc3cnc(N)nc3nc2NC(=O)NC(C)(C)C)c1 (10 µM)	0
Cc1ccc(NC(=O)Nc2nnc(Sc3ncnc4cc(OCCCN5CCOCC5)ccc34)s2)cc1 (10 µM)	0

(continued)

Structure (SMILES)	number of time points
CCOc1cc2ncc(C#N)c(Nc3ccc(OCc4ccccn4)c(Cl)c3)c2cc1NC(=O)/C=C/CN(C)C [Neratinib] (10 µM)	0
CN1CCC(Nc2ncc3ncnc(Nc4ccc(F)c(Cl)c4)c3n2)CC1 [Falnidamol] (10 µM)	0
O=c1c(O)c(-c2ccc(O)c(O)c2)oc2cc(O)cc(O)c12 [Quercetin (dihydrate)] (10 µM)	0
COc1ccc(C=C(C#N)c2cccnc2)cc1OC (10 µM)	0
Nc1ncnc2c1c(-c1ccc(Oc3ccccc3)cc1)cn2C1CCCC1 (2.5 µM)	0
COc1cc2nc(C)nc(N[C@H](C)c3cc(N)cc(C(F)(F)F)c3)c2cc1O[C@H]1CCOC1 (10 µM)	0
N#CC(=Cc1ccc(O)c(O)c1)C(=O)NCc1ccccc1 (mixture of isomers) (10 µM)	0
O=C1Cc2c([nH]c3ccc(Br)cc23)-c2ncccc2N1 [1-Azakenpaullone] (10 µM)	0
COc1cc2c(Nc3ccc(Br)cc3F)ncnc2cc1OCCn1ccnn1 (10 µM)	0
CNc1nc(-c2ccc3c(N)n[nH]c3c2)cc(N2C[C@@H](C(=O)NC3CCCCC3)CC[C@H]2C)n1 (10 µM)	0
Cc1cc(F)c(C(=O)Nc2cccc(-c3nncn3C(C)C)n2)cc1-n1cnc(C2CC2)c1 [Selonsertib] (10 µM)	0
COc1cc(C)c(Sc2cnc(NC(=O)c3ccc(CNC(C)C(C)(C)C)cc3)s2)cc1C(=O)N1CCN(C(C)=O)CC1 (centres undefined) (2.5 µM)	0
CCN(CC)CCCCNc1ncc2cc(-c3c(Cl)cccc3Cl)c(NC(=O)NC(C)(C)C)nc2n1 (2.5 µM)	0
COc1cc(C=C(C#N)C(N)=O)cc(CSc2nc3ccccc3s2)c1O (10 µM)	0
C[C@]1(O)C[C@@H](c2nc(-c3ccc4ccc(-c5ccccc5)nc4c3)c3c(N)nccn32)C1 [Linsitinib] (2.5 µM)	0
CCN1CCN(c2ccc(Nc3cc(N(C)C(=O)Nc4c(Cl)c(OC)cc(OC)c4Cl)ncn3)cc2)CC1 [Infigratinib] (10 µM)	0
COc1c(CC=C(C)C)c(O)cc2oc(=O)c(-c3ccc(O)cc3O)cc12 [Glycycoumarin] (10 µM)	0
Cc1cc(C(=O)Nc2cccc(C(=O)Nc3cccc(C(F)(F)F)c3)c2)on1 (10 µM)	0
Cn1c(=O)c(Oc2ccc(F)cc2F)cc2cnc(NC3CCOCC3)nc21 [R1487 (Hydrochloride)] (10 µM)	0

From the supplement of paper PMC12823440, “Inhibitors supercharge kinase turnover through native proteolytic circuits” (Nature, 2025)
